# Reference: article PMC4957761
# Chains of the proteins cited; added tags and fusions are not shown. Residues count along the entry.
# UniProt P15454, residues 2-187: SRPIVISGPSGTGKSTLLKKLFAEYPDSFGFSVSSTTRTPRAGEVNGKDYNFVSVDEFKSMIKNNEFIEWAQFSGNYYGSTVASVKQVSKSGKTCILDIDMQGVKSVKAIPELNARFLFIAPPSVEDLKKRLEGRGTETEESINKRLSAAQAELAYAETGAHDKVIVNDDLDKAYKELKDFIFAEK
# Results are given in words; binding and its absence hold for the method and conditions named. Binding seen in cells or lysates may run through a third protein.
# B1: Gim3-TAP (protein, UniProt P53900 1-129)
# chain: MELLPQGQRNNTQVTFEDQQKINEFSKLIMRKDAIAQELSLQREEKEYLDDVSLEIELIDEDEPVQYKVGDLFIFMKQSKVTAQLEKDAERLDNKIETLEDKQRDIDSRLDALKAILYAKFGDNINLER
# Biological target: Guk1-GFP (S. cerevisiae) (UniProt P15454)
# Assay: co-IP; GFP-Trap agarose beads, 2 h at 4°C, on lysates of Gim3-TAP yeast cells grown at 25°C; native lysis buffer (20 mM HEPES pH 7.5, 0.5% NP-40, 200 mM NaCl, 1 mM EDTA, 10 mM iodoacetamide); blot with anti-TAP
binder,measurement,value
B1,binding,no binding
